Laboratory results taken from paper PMC8931530.

System: GST-TcMYB29a (Taxus chinensis)
Test: EMSA
Settings: LightShift Chemiluminescent EMSA Kit per manufacturer; pH and temperature not stated; recombinant protein; protein details: N-terminal GST (pGEX-4T-1); label: 3' biotin

Sequence: TACAATCCCCCGAGTACTCCCCCCTCCGTTAAGTTAAGCATCCTCCTCTTCCCCCA / TGGGGGAAGAGGAGGATCCTTAACTTAACGGAGGGGGGAGTACTCGGGGGATTGTA [B1 probe (TcT5OH promoter)]
- binding result: binds

Construct, isoform or probe ends are uncertain for at least one entry.
